Assay results from patent US20160039936A1, “FIBROBLAST GROWTH FACTOR RECEPTOR INHIBITION FOR THE TREATMENT OF DISEASE” (UNIVERSITY OF MIAMI, priority 2011, published 2016).
No constants are given. Whether binding was seen depends on the method and setting. Some entries that bind do so weakly or less than the wild type.

Chains of the proteins cited; added tags and fusions are not shown. Residues count along the entry.
UniProt Q498D6, residues 17-800: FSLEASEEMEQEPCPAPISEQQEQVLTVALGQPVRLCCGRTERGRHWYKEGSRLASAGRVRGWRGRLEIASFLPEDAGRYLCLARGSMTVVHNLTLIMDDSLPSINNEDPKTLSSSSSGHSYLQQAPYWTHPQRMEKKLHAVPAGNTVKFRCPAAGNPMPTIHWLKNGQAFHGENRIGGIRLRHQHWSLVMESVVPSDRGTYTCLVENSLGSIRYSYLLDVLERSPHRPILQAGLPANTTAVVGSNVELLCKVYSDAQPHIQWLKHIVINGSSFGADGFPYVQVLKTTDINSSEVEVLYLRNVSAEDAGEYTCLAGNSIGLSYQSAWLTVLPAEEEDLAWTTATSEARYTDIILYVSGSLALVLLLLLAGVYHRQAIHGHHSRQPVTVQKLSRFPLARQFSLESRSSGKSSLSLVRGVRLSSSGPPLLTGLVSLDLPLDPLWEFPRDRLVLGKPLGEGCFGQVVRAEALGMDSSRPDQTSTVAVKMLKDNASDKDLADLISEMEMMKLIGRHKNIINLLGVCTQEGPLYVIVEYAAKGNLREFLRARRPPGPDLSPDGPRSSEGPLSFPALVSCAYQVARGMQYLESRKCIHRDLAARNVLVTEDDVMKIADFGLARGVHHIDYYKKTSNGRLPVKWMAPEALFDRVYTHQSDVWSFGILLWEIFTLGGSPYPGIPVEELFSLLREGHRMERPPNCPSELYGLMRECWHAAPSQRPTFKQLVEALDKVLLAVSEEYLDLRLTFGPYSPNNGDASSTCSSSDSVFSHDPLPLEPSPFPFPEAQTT

How the values were obtained:
[1] = biological target: T1, endogenous PLCγ of neonatal rat ventricular myocytes (NRVM) (rat) (UniProt P10686); experiment: immunoprecipitation of endogenous PLCγ from NRVM treated with FGF23 for 30 minutes, immunoblot for FGFR4
T1 sequence (looked up): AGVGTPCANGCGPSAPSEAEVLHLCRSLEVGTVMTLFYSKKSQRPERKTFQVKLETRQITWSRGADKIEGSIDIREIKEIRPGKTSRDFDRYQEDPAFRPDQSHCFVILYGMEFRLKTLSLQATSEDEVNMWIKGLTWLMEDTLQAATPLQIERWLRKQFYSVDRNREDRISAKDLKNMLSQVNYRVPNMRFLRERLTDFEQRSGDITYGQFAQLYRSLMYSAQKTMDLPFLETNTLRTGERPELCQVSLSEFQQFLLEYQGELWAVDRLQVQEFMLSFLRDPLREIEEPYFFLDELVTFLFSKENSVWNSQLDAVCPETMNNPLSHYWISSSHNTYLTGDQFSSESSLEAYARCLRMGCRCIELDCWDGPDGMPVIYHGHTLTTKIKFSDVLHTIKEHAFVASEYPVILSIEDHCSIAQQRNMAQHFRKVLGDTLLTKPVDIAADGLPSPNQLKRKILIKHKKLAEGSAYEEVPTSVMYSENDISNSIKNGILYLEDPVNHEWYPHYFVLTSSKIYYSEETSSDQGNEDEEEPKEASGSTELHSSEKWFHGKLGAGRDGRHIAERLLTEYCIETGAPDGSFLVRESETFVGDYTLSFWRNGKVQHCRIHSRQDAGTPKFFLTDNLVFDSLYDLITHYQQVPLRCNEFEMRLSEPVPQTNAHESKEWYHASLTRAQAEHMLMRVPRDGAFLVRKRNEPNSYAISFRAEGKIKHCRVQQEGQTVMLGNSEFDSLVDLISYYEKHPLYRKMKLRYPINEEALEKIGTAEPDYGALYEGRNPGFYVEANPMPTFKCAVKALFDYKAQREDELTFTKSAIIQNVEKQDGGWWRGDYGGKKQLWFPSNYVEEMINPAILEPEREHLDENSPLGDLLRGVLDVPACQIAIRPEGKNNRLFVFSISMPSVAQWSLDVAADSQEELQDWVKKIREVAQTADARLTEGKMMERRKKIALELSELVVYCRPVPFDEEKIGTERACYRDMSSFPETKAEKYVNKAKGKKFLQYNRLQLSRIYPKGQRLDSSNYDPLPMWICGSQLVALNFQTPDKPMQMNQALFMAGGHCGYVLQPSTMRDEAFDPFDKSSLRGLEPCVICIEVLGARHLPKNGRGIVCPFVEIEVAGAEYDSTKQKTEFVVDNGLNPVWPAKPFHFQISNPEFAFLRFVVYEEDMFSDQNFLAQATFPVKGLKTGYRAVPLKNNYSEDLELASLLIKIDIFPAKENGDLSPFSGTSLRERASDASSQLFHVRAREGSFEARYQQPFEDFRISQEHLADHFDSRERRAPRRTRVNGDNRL

[2] = biological target: T1, endogenous PLCγ of neonatal rat ventricular myocytes (NRVM) (rat); experiment: anti-PLCγ immunoprecipitation from NRVM, immunoblot for FGFR4

binding [1]: binds
binding [2]: binds
Substance: endogenous FGFR4 of neonatal rat ventricular myocytes (NRVM) (from UniProt Q498D6 17-800) (receptor)
